Test [1] addresses HAUSP^62-560 (TRAF-Catalytic-domain) (human) (UniProt Q93009). The test can be described thus: NMR chemical shift perturbation.
Test [2] shares this target.

Amino acid sequences for entries named in this document (tags omitted). A change or cut given only in a name is not applied to a line headed by its entry.
UniProt Q93009: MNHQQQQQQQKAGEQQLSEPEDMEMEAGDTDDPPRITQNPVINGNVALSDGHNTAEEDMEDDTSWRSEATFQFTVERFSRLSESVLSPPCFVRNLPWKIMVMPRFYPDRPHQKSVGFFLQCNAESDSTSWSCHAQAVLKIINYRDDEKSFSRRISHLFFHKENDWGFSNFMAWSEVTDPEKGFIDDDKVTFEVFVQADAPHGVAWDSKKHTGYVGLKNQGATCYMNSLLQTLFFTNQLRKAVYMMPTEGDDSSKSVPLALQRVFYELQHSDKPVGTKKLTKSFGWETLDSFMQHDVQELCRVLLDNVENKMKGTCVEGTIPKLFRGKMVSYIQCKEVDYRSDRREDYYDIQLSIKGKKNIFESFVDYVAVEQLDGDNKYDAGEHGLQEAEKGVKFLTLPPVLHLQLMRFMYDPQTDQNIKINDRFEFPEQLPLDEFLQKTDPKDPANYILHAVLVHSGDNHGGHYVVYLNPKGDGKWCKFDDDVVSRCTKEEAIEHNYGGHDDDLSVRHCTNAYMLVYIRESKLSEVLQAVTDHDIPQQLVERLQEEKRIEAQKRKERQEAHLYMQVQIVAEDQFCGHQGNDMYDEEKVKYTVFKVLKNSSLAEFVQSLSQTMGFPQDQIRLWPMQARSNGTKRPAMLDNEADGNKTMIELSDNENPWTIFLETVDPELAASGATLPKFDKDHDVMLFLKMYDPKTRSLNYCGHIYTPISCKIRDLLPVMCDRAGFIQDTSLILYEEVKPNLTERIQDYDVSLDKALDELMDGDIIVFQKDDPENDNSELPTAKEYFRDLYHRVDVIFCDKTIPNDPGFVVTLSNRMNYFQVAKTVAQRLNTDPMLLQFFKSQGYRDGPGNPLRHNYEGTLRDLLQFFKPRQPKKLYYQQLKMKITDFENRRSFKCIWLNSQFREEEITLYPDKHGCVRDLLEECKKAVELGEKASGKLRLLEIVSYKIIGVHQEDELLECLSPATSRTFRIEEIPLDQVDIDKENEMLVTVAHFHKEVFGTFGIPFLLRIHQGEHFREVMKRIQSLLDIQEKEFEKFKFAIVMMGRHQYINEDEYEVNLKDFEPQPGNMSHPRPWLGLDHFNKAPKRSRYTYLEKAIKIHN
UniProt Q2HR73: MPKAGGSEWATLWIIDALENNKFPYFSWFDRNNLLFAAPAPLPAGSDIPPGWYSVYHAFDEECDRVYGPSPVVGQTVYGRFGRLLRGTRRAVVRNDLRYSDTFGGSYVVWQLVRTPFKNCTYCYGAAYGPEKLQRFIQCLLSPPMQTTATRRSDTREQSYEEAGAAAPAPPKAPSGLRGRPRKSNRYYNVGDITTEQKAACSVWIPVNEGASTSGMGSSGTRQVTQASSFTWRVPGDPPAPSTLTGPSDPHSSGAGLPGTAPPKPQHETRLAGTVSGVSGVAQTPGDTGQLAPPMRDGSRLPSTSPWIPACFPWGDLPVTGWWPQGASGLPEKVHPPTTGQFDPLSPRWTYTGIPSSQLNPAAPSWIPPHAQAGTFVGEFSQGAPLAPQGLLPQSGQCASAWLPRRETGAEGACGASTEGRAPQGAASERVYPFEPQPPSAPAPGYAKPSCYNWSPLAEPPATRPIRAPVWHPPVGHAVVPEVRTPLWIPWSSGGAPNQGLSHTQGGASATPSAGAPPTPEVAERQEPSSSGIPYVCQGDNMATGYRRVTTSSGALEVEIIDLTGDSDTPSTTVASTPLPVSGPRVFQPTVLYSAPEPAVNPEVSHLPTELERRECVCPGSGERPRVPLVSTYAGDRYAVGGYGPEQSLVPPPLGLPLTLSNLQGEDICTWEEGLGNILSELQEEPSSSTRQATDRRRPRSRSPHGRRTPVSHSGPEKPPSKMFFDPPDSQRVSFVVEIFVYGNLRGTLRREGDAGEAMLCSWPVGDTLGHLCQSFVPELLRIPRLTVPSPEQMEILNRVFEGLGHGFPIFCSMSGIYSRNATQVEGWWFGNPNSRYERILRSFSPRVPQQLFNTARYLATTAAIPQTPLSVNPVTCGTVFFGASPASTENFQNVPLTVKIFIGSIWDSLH

Read-outs that look alike come from different tables or passages of the source. Results are given in words; binding and its absence hold for the method and conditions named. Some entries that bind do so weakly or less than the wild type.

For “vIRF4^153-256 (from UniProt Q2HR73 153-256)”, the binding result in test [1] and in test [2] was “binds” in each case.

The record behind these values is patent US20130330358A1, “CRYSTAL STRUCTURE AND PEPTIDE INHIBITORS OF HAUSP DEUBIQUITINASE” (priority 2011, published 2013).
